In the supplement of paper PMC10849652:
The other results are listed elsewhere or left out.

Sequences of proteins named here, by UniProt entry; tags and fusion partners are left off. A change or cut given only in a name is not applied to a line headed by its entry.
UniProt Q14442: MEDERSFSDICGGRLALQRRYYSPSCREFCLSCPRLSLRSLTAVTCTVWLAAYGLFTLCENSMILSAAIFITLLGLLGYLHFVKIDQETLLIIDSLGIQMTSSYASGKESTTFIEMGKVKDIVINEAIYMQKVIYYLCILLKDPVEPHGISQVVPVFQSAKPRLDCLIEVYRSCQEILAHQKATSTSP
UniProt Q9BTU6: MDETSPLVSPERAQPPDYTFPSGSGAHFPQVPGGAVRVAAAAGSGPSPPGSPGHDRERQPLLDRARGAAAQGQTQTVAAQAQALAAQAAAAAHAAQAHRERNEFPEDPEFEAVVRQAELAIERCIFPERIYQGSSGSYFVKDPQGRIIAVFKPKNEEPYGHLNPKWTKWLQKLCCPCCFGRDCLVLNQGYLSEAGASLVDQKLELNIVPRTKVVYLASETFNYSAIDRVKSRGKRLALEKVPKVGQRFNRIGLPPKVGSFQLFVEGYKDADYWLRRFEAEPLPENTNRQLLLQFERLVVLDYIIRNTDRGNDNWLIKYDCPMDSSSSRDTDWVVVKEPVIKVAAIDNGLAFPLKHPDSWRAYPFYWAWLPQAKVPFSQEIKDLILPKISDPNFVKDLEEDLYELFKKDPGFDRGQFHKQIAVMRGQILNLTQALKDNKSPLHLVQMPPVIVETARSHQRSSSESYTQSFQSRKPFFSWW
UniProt Q8TBF5: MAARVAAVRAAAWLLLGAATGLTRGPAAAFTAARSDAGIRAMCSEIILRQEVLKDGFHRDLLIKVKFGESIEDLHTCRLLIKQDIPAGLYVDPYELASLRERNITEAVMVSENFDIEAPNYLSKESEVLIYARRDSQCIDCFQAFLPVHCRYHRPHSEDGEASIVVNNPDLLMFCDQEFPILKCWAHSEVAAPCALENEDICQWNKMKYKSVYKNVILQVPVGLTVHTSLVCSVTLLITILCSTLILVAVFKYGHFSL
UniProt Q8TCG2: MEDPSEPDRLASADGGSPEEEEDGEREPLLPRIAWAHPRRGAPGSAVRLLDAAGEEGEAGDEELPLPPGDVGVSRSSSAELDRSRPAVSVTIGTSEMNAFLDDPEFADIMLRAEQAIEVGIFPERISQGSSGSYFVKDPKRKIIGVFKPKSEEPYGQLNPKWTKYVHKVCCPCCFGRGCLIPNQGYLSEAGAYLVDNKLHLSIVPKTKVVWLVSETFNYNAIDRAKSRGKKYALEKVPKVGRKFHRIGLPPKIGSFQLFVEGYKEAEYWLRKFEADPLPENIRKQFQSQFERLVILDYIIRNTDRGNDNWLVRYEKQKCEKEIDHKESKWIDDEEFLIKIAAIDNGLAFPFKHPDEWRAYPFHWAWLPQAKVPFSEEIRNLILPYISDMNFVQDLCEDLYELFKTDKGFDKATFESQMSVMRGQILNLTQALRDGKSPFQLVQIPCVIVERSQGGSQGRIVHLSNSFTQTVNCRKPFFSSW
UniProt P16118: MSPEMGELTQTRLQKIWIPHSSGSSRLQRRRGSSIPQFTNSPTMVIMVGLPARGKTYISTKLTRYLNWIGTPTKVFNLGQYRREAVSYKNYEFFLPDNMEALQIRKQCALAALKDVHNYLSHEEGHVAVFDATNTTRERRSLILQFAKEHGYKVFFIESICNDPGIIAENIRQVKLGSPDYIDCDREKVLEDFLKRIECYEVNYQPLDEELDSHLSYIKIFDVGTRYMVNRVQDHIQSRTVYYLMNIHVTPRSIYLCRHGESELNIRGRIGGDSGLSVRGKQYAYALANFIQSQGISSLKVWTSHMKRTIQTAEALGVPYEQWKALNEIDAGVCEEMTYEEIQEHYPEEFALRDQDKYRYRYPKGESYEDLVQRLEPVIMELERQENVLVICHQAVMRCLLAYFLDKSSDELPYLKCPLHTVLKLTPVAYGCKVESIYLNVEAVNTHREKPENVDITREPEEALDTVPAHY
UniProt Q8TCD6: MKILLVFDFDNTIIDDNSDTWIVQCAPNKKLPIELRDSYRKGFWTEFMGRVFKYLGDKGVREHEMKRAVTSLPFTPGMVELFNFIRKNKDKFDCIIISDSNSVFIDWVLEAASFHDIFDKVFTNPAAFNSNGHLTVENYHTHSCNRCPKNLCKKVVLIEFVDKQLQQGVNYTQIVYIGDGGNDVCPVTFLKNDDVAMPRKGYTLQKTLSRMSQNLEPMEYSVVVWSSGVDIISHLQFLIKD
UniProt Q9UG56: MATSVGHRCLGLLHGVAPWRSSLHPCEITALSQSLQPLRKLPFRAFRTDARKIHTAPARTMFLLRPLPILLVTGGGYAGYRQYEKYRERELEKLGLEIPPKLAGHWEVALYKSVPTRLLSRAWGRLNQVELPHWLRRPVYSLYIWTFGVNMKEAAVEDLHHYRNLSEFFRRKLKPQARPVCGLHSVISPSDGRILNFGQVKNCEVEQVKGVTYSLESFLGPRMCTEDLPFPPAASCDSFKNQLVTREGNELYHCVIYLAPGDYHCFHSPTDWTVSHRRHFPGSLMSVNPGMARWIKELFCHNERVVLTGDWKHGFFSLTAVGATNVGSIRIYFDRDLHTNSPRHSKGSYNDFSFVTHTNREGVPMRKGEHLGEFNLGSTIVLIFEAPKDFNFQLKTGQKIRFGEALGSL
UniProt Q8TEQ8: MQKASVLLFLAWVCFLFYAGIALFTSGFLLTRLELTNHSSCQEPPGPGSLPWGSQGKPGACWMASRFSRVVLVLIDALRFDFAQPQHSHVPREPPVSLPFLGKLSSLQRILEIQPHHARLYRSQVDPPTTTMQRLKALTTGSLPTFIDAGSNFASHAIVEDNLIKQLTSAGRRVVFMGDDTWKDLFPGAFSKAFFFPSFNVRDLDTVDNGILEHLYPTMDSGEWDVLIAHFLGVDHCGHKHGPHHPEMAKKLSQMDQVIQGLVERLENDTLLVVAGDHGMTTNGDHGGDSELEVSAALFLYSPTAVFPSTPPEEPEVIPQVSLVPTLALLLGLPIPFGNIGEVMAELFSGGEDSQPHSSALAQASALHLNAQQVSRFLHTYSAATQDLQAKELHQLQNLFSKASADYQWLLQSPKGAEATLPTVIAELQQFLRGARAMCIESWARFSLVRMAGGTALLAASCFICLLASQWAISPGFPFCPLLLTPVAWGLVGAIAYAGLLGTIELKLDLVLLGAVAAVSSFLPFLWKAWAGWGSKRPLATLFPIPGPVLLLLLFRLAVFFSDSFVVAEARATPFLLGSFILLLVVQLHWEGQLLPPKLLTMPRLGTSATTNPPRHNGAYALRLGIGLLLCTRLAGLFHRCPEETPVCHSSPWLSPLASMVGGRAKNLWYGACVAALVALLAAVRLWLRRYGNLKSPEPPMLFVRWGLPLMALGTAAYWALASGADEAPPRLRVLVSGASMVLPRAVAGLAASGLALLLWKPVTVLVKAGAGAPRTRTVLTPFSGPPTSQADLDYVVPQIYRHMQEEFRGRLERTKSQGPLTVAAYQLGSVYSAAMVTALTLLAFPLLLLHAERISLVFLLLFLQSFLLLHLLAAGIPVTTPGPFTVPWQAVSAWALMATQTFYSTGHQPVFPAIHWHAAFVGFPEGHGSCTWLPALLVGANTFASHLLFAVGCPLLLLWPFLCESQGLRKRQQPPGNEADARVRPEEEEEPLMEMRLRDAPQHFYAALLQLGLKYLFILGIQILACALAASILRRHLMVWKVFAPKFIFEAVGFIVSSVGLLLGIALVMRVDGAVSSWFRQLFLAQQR

Key:
Assay in all cases: log2 fold change, soluble protein after heating vs DMSO (PISA); higher = thermal stabilisation; K562 cells, 10 uM, 30 min; active = over 0.2 and 3.5 SD of the protein, either way, in both replicates (recomputed)
bafetinib = compound: Cc1ccc(NC(=O)c2ccc(CN3CC[C@H](N(C)C)C3)c(C(F)(F)F)c2)cc1Nc1nccc(-c2cncnc2)n1 [bafetinib]
How it was run: (§1)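 K562 cells at 2×10^6 cells/mL were given 10 μM compound for 30 min. Aliquots then went through 3 min of heating across 48°C-58°C, were pooled, and were extracted in PBS with 0.5% NP-40 at 4°C, and the supernatant after 21,000xg for 90 min was quantified by TMTpro 16plex LC-MS/MS with channel sums equalised. Thermal stability relative to control samples, from duplicates, is given as log2 fold change.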

[1] = compound: Cc1cccc(CC(=O)N2CCc3c2ccc(-c2cn(C)c4ncnc(N)c24)c3F)n1
How it was run: as §1

dasatinib = compound: Cc1nc(Nc2ncc(C(=O)Nc3c(C)cccc3Cl)s2)cc(N2CCN(CCO)CC2)n1 [dasatinib]
How it was run: as §1

[2] = compound: Cn1cc(-c2ccc3c(c2)CCN3C(=O)Cc2cccc(C(F)(F)F)c2)c2c(N)ncnc21
How it was run: as §1

[3] = compound: Cn1cc(-c2ccc3nnc(C(F)(F)c4ccc5ncccc5c4)n3n2)cn1
How it was run: as §1

tipifarnib = compound: Cn1cncc1[C@@](N)(c1ccc(Cl)cc1)c1ccc2c(c1)c(-c1cccc(Cl)c1)cc(=O)n2C [tipifarnib]
How it was run: as §1

mubritinib = compound: FC(F)(F)c1ccc(/C=C/c2nc(COc3ccc(CCCCn4ccnn4)cc3)co2)cc1 [mubritinib]
How it was run: as §1

nilotinib = compound: Cc1cn(-c2cc(NC(=O)c3ccc(C)c(Nc4nccc(-c5cccnc5)n4)c3)cc(C(F)(F)F)c2)cn1 [nilotinib]
How it was run: as §1

[4] = compound: Cc1nc(Nc2n[nH]c3c2CN(C(=O)N[C@H](CN(C)C)c2ccccc2)C3(C)C)c2sccc2n1
How it was run: as §1

[5] = compound: Cc1ncc(-c2ccnc(Nc3ccc(S(C)(=O)=O)cc3)n2)n1C(C)C
How it was run: as §1

Measured: log2 fold change

PIGH (UniProt Q14442)
inactive: bafetinib -0.037 | [1] -0.01 | dasatinib -0.053 | [2] 0.099 | [3] 0.009 | tipifarnib 0.056 | mubritinib 0.04

PI4K2A (UniProt Q9BTU6)
inactive: bafetinib -0.127 | [1] -0.042 | nilotinib 0.004 | [4] 0.037 | dasatinib -0.011 | [5] 0.076 | [2] 0.002 | [3] 0.056 | tipifarnib 0.031 | mubritinib -0.006

PIGX isoform 2 (UniProt Q8TBF5)
inactive: bafetinib -0.041 | [1] 0.237 | dasatinib 0.037 | [2] 0.122 | mubritinib -0.151

PI4K2B (UniProt Q8TCG2)
inactive: bafetinib -0.084 | [1] 0 | nilotinib 0.124 | [4] -0.052 | dasatinib -0.101 | [5] -0.167 | [2] 0.11 | [3] 0.146 | mubritinib 0.053

PFKFB1 (UniProt P16118)
inactive: bafetinib -0.081 | [1] 0.081 | nilotinib -0.026 | [4] -0.13 | [5] -0.057 | tipifarnib 0.031 | mubritinib 0.079

PHOSPHO2 (UniProt Q8TCD6)
inactive: bafetinib 0.11 | dasatinib -0.127 | [2] 0.166 | [3] 0.247 | mubritinib -0.034

PISD (UniProt Q9UG56)
inactive: bafetinib -0.042 | [1] -0.007 | nilotinib -0.053 | [4] -0.003 | dasatinib -0.029 | [5] 0.105 | [2] -0.068 | [3] -0.02 | tipifarnib -0.005 | mubritinib 0.103

PIGO (UniProt Q8TEQ8)
inactive: bafetinib -0.028 | nilotinib -0.028 | [4] -0.041 | [5] -0.1 | [2] 0.036 | mubritinib -0.083
